Drawing on patent publication US20100255006A1, this text covers binding for two substances.

By UniProt entry, the sequences of proteins in these tests, tags left out. Where a name states a change or a piece, a line headed by the entry shows the natural chain unless it says otherwise. Residues count along the entry.
UniProt P29466: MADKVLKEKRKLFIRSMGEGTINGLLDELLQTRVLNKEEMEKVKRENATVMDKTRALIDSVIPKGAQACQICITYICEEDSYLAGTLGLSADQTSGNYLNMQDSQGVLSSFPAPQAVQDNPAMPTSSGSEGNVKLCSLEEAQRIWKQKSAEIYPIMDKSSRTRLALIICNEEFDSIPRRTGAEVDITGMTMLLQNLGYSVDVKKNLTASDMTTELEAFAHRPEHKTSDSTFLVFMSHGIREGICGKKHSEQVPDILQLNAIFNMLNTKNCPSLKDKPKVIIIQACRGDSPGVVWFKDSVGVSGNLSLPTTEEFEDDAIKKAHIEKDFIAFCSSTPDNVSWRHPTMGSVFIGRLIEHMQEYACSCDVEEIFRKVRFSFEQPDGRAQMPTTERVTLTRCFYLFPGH
CARD of caspase-1 (mammalian two-hybrid construct): residues 1-91 of P29466
UniProt Q9ULZ3: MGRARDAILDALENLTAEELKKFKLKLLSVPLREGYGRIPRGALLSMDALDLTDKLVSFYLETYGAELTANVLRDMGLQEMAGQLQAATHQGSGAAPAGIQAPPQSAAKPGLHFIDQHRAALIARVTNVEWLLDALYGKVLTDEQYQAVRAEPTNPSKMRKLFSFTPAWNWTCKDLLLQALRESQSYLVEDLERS

Experiment [1] concerns the target CARD of caspase-1 (mammalian two-hybrid construct) (UniProt P29466). Description: mammalian two-hybrid (legend of FIG. 13A).
Experiment [2] has the same target. Briefly: mammalian two-hybrid in 293T cells, luciferase reporter.
Experiment [3] has as its target T7-tagged caspase-1 (UniProt P29466). Description: co-immunoprecipitation with anti-HA antibodies, immunoblot with an anti-caspase-1 antibody. On the technique in general: In western blotting, separated proteins are transferred to a membrane and probed.
Experiment [4] shares this target. Description: co-immunoprecipitation with anti-HA antibodies, immunoblot with an anti-caspase-1 antibody (legend of FIG. 13B).

No constants are given. Whether binding was seen depends on the method and setting. For some of these results: In cells and extracts the contact can be indirect. Some binding calls cover weakened binding; strength is not graded here.

“CARD of CARD-5 (mammalian two-hybrid construct) (from UniProt Q9ULZ3 107-195)”: the binding result in experiment [1] and in experiment [2] was “binds” throughout.
Turning to “HA-tagged CARD-5 (from UniProt Q9ULZ3 1-195)”, the binding result with T7-tagged caspase-1 [3] and with T7-tagged caspase-1 [4] was “binds” in each case.
